Assay results as given in US6872336B2, “Process for producing a pharmaceutical solid preparation containing a poorly soluble drug” (Shin-Etsu Chemical Co., Ltd., priority 2001, dated 2005).
≈ marks a conversion by molar mass, not a printed value.

Test: physchem
Settings: pH 6.8

Structure (SMILES): COC(=O)C1=C(C)NC(C)=C(C(=O)OC)C1c1ccccc1[N+](=O)[O-] [nifedipine]
- solubility: 10 µg/mL (≈ 28.9 µM)
